# Source: PubChem BioAssay AID1347423 (Functional Genomics Laboratory (NCATS/FGL), 2020)
# The whole screen tested about 52,000 sequences, of which about 210 (0.4%) were called active.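 Rule for the calls: active = gene whose silencing raises cell survival under the drug, median off-target-corrected z-score across its silencing RNAs 2 or more; inactive = the rest.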 The list shows a part of the results.
# Experiment: Resistance to Poly (ADP-Ribose) Polymerase inhibitor: Gene Identification via Genome-wide siRNA Screen
# Conditions: mouse BRCA2 R2336H ES cells, olaparib, CellTiter-Glo viability; hits give high values
# Procedure, shortened: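 Genome-wide siRNA screen (3 siRNAs/gene, 20 nM) in mouse ES cells carrying hypomorphic BRCA2 R2336H; olaparib 500 nM added 48 h post-transfection, CellTiter-Glo viability 72 h later. Normalized to plate-median negative control; MAD z-scores, gene median, seed-adjusted.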
row,Sequence,z-score
1,GGUCAUCCGAGAUUUCACCTT against Elavl3,inactive: 0.236
2,GCCCUGAGUGGUUCAAUAATT against 5730437N04Rik,inactive: -1.98
3,GGGUAGAAGUUGAUGUCAUTT against 2310042N02Rik,inactive: 0.111
4,GGUCAUUCCAGCAAGGGUATT against D130079A08Rik,inactive: -0.475
5,GCAGUUAGGUGUCGUAUAUTT against Lrpprc,inactive: 0.273
6,GCCAUUACUAUGAUUAUCCTT against Itgb1,inactive: 0.473
7,GGAGCAUCUCUCCAGAUUGTT against Igsf9,inactive: -1.25
8,GGGCCACUGCCAAAUACUATT against 2510009E07Rik,inactive: -1.12
9,GGUACUCAUAAAACAUGAATT against Ticam2,inactive: -0.182
10,GGCAAAAUGUAUGGUAGAATT against Tead1,inactive: -1.39
11,GCUAGGAUUUCAGCAUAUATT against Adra1a,inactive: 1.62
12,GCGAAUAGGAUCCAGCUAUTT against Sin3b,inactive: -1.56
13,GCGGGAUUGGUCAUUCCACTT against Mrpl45,inactive: 0.404
14,GGAUAUUGAACACUUCUUGTT against D330017J20Rik,inactive: 1.25
15,GCUAUUUUUGUGGGUGAUUTT against Otx2,inactive: -1.01
16,GGAUAAGAAACGCAGAGUUTT against Dnmt1,inactive: 0.345
17,GCUUCCUACCAUGAUGGUCTT against Gm414,inactive: 0.553
18,GGGUGCGGAAAUUCAUUAATT against BC051227,inactive: 0.578
19,GGGUGUUGGAAAUUAAUCUTT against Rpl31,inactive: -1.3
20,CCUCGAGUGGUUGGAUAAGTT against D11Wsu68e,inactive: -0.793
21,GGUUGGGCUGCCAAGUUUGTT against Fdx1,inactive: -0.214
22,GGUGAUAAAUCCAAAAAAGTT against Cpne5,inactive: 1.57
23,GGUAAGAGGAUCCAAGGUGTT against 2900046G09Rik,inactive: -0.327
24,GCAAGACACUUGAUAACUCTT against 1700022C21Rik,inactive: 0.167
25,CGCAGCUGAAUAUGUGAAGTT against H2-M10.5,inactive: -0.87
26,GGCGAUAGACGAGUAUCAGTT against 2610208M17Rik,inactive: 0.529

row,Sequence,z-score
1,GGUUCUCCACAUGGUGAAUTT against Aptx,inactive: -0.407
2,GGUGUUGAAAGUCAUUGUGTT against Crsp8,inactive: -0.142
3,GGGAAGACUAUCUCGUGACTT against Aatk,inactive: -0.38
4,CCAUUAACACCUGUUAAUGTT against 2610209A20Rik,inactive: -0.104
5,GCUGAAUCACAAGUACUGGTT against BC002236,inactive: 0.441
6,GCCCAUUAAUGGGAUAUAATT against 2310042L06Rik,inactive: -2.76
7,CGCUCUCUGGAUUUAUCCATT against Agt,inactive: 1.16
8,GCCGUAUCGAUUCUAUUUCTT against Slc6a17,inactive: -0.739
9,UCUCCUUCAUUCCAUGCCUTT against Olfr438,inactive: -0.0141
10,GGAAUCAGUUAAAGAGAUCTT against 2700023J09Rik,inactive: 0.815
11,GGAAAACCAACAAAGCAAATT against Pde10a,inactive: 0.556
12,CCUCAAAUUAUUGUUGGCATT against B430315C20Rik,inactive: 0.141
13,CGAUGAAAUCAUCACUAUCTT against Cyfip1,inactive: -0.619
14,GCGGGACUUUAUCUCAUCCTT against AI317395,inactive: 1.45
15,GGUGCAUAGCAUACCCUAGTT against Hlf,inactive: -1.23
16,GGAAGCAGAAUUGUAAAGATT against Bid3,active: 2.41
17,GGCUAAUGGUGCGUACAGATT against Cyp4a10,inactive: -0.194
18,CCAAUUGGGCACAUAGUCGTT against Ovgp1,inactive: -0.185
19,GAGCAGAGGAUUGAUGCACTT against LOC235779,inactive: -1.84
20,GGUGAUGGAGUACUUAUUGTT against Acadvl,inactive: -0.775
21,CCUGUUAAUUGAUUACCUUTT against Pla2g1br,inactive: 1.08
22,GGUGGUUUUCAUGUUUCCCTT against Olfr574,inactive: -0.968
23,GGAAAUUUUGACCAAGACCTT against Apoc1,inactive: 0.965
24,GCAUCACAGGCGAGUUUGUTT against Olfr11,inactive: -0.633
25,GGAAGGAAGUUAAUUCAUGTT against D330038O06,inactive: -0.1
26,GGAACUAUUACCAUUCUGUTT against Dkk3,inactive: 0.217

row,Sequence,z-score
1,GGGCUGAAUAAAAGCCAGATT against 2410005H09Rik,inactive: -0.133
2,AUCUCAGCCUUGGUACGUGTT against 2610200G18Rik,inactive: -0.57
3,GGUAUUUGCCAACCAAAACTT against Trerf1,inactive: -1.45
4,GGAGGUCUGGAUUAACUGUTT against 5830411N06Rik,inactive: -0.058
5,GGAAUUCAUGAAGAAGUCATT against Pdlim7,inactive: 0.191
6,CGGACUCCAUAUGUUGAAUTT against AI413414,inactive: 0.68
7,GGCCAAAUUGCCAUCUGUUTT against Gm1631,inactive: 0.839
8,CCAUUGUUAGCCACAUACGTT against Acp5,inactive: 0.29
9,GGUCAUCAAGCAGUGCUAUTT against Ncstn,inactive: 0.741
10,GGACAGCCAGGACUUCUCATT against 4833421E05Rik,inactive: -1.37
11,GCCAAUCGUAACUUGCUAATT against Arhgap19,inactive: 0.256
12,GGAACUGAAAGACCAGUAGTT against Rpl37a,inactive: -2.22
13,GGAGUUAAAAUCACUCAUCTT against Ifi1,inactive: -0.366
14,GGCUUUCUGGGAACAGAGATT against Dspg3,inactive: -0.627
15,CCUCCUCCAACCAUCAGUUTT against Olfr695,inactive: 0.276
16,CCUAGUAACUAUCUACCUCTT against Sval3,inactive: -0.537
17,CGAUUCCAACAAGAAAGUGTT against 4632412N22Rik,inactive: -0.0925
18,GCGCAACUAAAACAGAUUGTT against Eif2ak1,inactive: -0.135
19,GGACAUAAGACCAUCUCCCTT against Olfr49,inactive: 0.835
20,GGAGAACAGCACACUGAACTT against Trappc5,inactive: 1.31
21,GCUGGAUUUGGACUCUUAGTT against V1rc29,inactive: -3.04
22,GCUGAGGCUGUGGAAACCATT against Nradd,inactive: 0.479
23,GGUGACGGUGUACGAGUUATT against Crybb3,inactive: 0.107
24,GGAGAAAGGAUUAUAGAUGTT against Klk7,inactive: 1.12
25,GGAUAAUUCAAAGACUGGATT against A630091E08Rik,inactive: -0.809
26,GGAAAUAUGGACAAGAACATT against Tulp4,inactive: -1.48

# Single entries from the list.
# z-score, GGAUAAUUCAAAGACUGGATT against A630091E08Rik is entered as inactive: -0.809
# z-score, GGUACUCAUAAAACAUGAATT against Ticam2 is entered as inactive: -0.182
# z-score, GGAGCAUCUCUCCAGAUUGTT against Igsf9 is entered as inactive: -1.25
# z-score, GCGAAUAGGAUCCAGCUAUTT against Sin3b is entered as inactive: -1.56

# More entries.

row,Sequence,z-score
1,GGCACAGUUCUGGAAGAUGTT against Qtrt1,inactive: -0.579
2,CGGUAUGUGUUGUCAGAGGTT against P42pop,inactive: -0.926
3,GGGAAGUAGCCAUCACACCTT against C330008L01Rik,inactive: 1.63
4,GGAAUGUAUCCAGGACUUCTT against Brd4,inactive: -1.95
5,GCAGCAAUAUAAGGACAGUTT against Grin2b,inactive: 0.0462
6,AUGUGGCAAAACCUUUGCATT against BC018101,inactive: 0.244
7,GGAGUGACUCCUACAAAAUTT against Ms4a4b,inactive: 0.533
8,GGACUUACAGCUAAACAACTT against Qk,inactive: 1.33
9,GGUUGCCUUUCUGUCGUUCTT against Olfr558,inactive: -1.32
10,GGCGAAAGUGCUUUUCCUGTT against 5830443L24Rik,inactive: 1.7
11,GGGACCUGUUUCUAUCCUGTT against 1700111I05Rik,inactive: 0.605
12,CCCAACAUUUUCUAUGUGATT against 2410008K03Rik,inactive: -0.202
13,GGUCCAUUGGGAGUUUGAGTT against Slc2a6,inactive: -1.29
14,GGUGUUUGUUCGGAAGCUCTT against Pes1,inactive: -1.54
15,GGUGGUGUAAUAGCUAAGATT against Hspa12b,inactive: 1.09
16,CCAAUGUGGAUGAAUCGAATT against Pdcd11,inactive: 1.1
17,GGAAAGUUUGCACUGUAAATT against Tiam2,inactive: 0.607
18,CCCAUAUUCUACACAUUCUTT against Gadd45gip1,inactive: -0.0949
19,CCCGUUAUCUUCCCAACUGTT against 4733401H21Rik,inactive: 0.111
20,GGACUGUUUGGAUUGCAUATT against Dock7,inactive: -0.822
21,CGCAGAAAGAAAUAGCAAUTT against B2m,inactive: 1.24
22,GGGUUUGAUCAACAGAGCCTT against Idb1,inactive: 0.765
23,GGUAUAUGGAACCAUGGGATT against Psmb9,inactive: 0.156
24,GCCUCGAGGACAAAACAUCTT against Amacr,inactive: -0.597
25,GGAUGCUCUCCAAUGAAUCTT against E130310N06,inactive: 0.495
